Data as given in PubChem BioAssay AID1347076 (National Center for Advancing Translational Sciences (NCATS), 2019).
Among all 400,000 compounds or so, about 13,000 (3.2%) were called active. Inconclusive means that the source gave no clear call. Such entries were picked first, then a sample of the others. The call rests on the fitted dose curve; in most records, active means well fitted cell-killing curve with a large enough effect; inconclusive means small, poorly fitted or top-dose-only effect, or effect the other way; inactive means flat fitted curve, though single readings scatter. Potencies of inconclusive entries are doubtful fits and often do not repeat.

Assay: qHTS assay for MDR1-selective chemotherapeutics: Primary screen using the drug-selected MDR subline cells KB-V1; further: nearly all actives have a fitted effect of over 60% in size
Conditions: KB-V1 MDR cells viability, CellTiter-Glo, 72 h; activity change, negative = cytotoxicity: at 46.1 µM (top of the series)
Summary of the method: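 KB-V1 cells (P-gp-expressing MDR subline of KB-3-1) in phenol-red-free DMEM with 10% FBS were exposed to library compounds over a concentration series for 72 h at 37 degrees C. Viability read by CellTiter-Glo luminescence; concentration-effect curves fitted after normalization.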
On the % scale 0 is the no-effect control and ±100 the full control effect; potency means the concentration at half of the fitted maximal effect.

**Q.** With `COc1ccc(CCNC(=O)c2cc([N+](=O)[O-])ccc2N2CCOCC2)cc1` as the compound, how does the Potency read?
**A.** inconclusive: 10.3 µM [cytotoxic, partial curve]

**Q.** Which Potency does the source give for `Cc1nn(CCCC(=O)NCc2cccc(F)c2)c(=O)c2nn(-c3ccccc3)c(C)c12` here?
**A.** inconclusive: 20.6 µM [rising, single point]

**Q.** For `CCC(=O)Oc1ccc(-c2cnc3ccccc3n2)cc1`, which Potency is on record?
**A.** inconclusive: 32.6 µM [cytotoxic, single point]

**Q.** For `O=C1C=CC(=O)N1c1ccc2c(c1)Cc1cc(F)ccc1-2`, which “activity change, negative = cytotoxicity” value is on record?
**A.** inactive: 8.3%

**Q.** Which Potency does the source give for `CC(Oc1ccc(F)cc1)C(=O)Nc1ccc2ccccc2c1` (centres undefined) here?
**A.** inconclusive: 29.1 µM [cytotoxic, single point]

**Q.** With `Cc1ccc(F)c(CNC(=O)C2CCC(=O)N(Cc3ccccn3)C2)c1F` (centres undefined) as the compound, how does the Potency read?
**A.** inconclusive: 1.46 µM [rising, full curve]

**Q.** For `CCOc1ccc(CNCc2c(C(=O)O)c(C)n(Cc3ccc(F)cc3Cl)c2C)cc1`, which “activity change, negative = cytotoxicity” value is on record?
**A.** inactive: 29.2%

**Q.** For `CNc1ccc(/C=C2\C=Cc3ccccc32)cc1I`, which Potency is on record?
**A.** inconclusive: 20.6 µM [cytotoxic, single point]

**Q.** For `CCCCNC(=O)CSc1nc(Cc2ccccc2)nc2ccccc12`, which “activity change, negative = cytotoxicity” value is on record?
**A.** inactive: -18.3%

**Q.** Which Potency does the source give for `CC(Sc1ccccc1)C(=O)NN=C1CCCC1` (centres undefined) here?
**A.** inconclusive: 20.6 µM [rising, single point]

**Q.** For `O=C(O)c1cc(O)c2c(c1)[C@@H]([C@H]1c3cc(C(=O)O)cc(O)c3C(=O)c3c(O[C@@H]4O[C@H](CO)[C@@H](O)[C@H](O)[C@H]4O)cccc31)c1cccc(O[C@@H]3O[C@H](CO)[C@@H](O)[C@H](O)[C@H]3O)c1C2=O`, which “activity change, negative = cytotoxicity” value is on record?
**A.** inactive: 10.2%

**Q.** For `COc1ccc(CCNC(=O)/C=C/c2ccc3ccccc3n2)cc1OC`, which Potency is on record?
**A.** active: 18.4 µM

**Q.** With `Cc1ccc(SCC(=O)OCC(=O)NC2CCCCCC2)cc1` as the compound, how does the Potency read?
**A.** inconclusive: 13 µM [rising, partial curve, poor fit]

**Q.** For `CC(=O)c1cccc(NC(=O)COc2ccc(S(=O)(=O)N3CCCCC3)cc2)c1`, which Potency is on record?
**A.** inconclusive: 18.4 µM [cytotoxic, single point]

**Q.** Which “activity change, negative = cytotoxicity” value does the source give for `O=C(CCn1c(=O)oc2ccc(Cl)cc21)NCCCN1CCOCC1` here?
**A.** inactive: 10%

**Q.** With `C[C@H](CO)N1C[C@H](C)[C@@H](CN(C)CC2CCCCC2)Oc2c(NC(=O)Cc3ccccc3)cccc2C1=O` as the compound, how does the Potency read?
**A.** inconclusive: 18.4 µM [cytotoxic, single point]

**Q.** For `COC(=O)[C@]12CCCCC=C1N(CCc1ccc(OC)c(OC)c1)C(=O)[C@H](CC(=O)NCCCN1CCCC1=O)C2`, which “activity change, negative = cytotoxicity” value is on record?
**A.** inactive: 7.05%

**Q.** Which “activity change, negative = cytotoxicity” value does the source give for `COc1cc(N(C)C)c(OC)cc1C=C1C=CC=C1` here?
**A.** inactive: -3.06%

**Q.** For `COc1ccc(N(CC(O)Cn2c3ccccc3c3ccccc32)S(=O)(=O)c2ccccc2)cc1` (centres undefined), which Potency is on record?
**A.** active: 23.1 µM

**Q.** For `CCC(C)(C)n1nnnc1C(c1cc2cc(C)cc(C)c2[nH]c1=O)N1CCCC1` (centres undefined), which “activity change, negative = cytotoxicity” value is on record?
**A.** inactive: 0.869%

**Q.** Which Potency does the source give for `Cc1ccc(-c2nc(S(=O)(=O)c3ccc(Cl)cc3)c(N3CCCCC3)o2)cc1` here?
**A.** inconclusive: 29.1 µM [cytotoxic, single point]

**Q.** For `N#CCSc1nc(Nc2ccc3c(c2)OCO3)c2ccccc2n1`, which Potency is on record?
**A.** active: 14.6 µM

**Q.** With `Cc1cccc(-n2c(=O)c3c(n4cnnc24)-c2ccccc2CC32CCCCC2)c1` as the compound, how does the Potency read?
**A.** inconclusive: 23.1 µM [cytotoxic, single point]

**Q.** Which Potency does the source give for `CCOc1ccc(-n2c([S-])c(C(=O)Nc3ccc(S(=O)(=O)N4CCOCC4)cc3)[n+]3cc(C(N)=O)ccc23)cc1` here?
**A.** inconclusive: 8.2 µM [rising, partial curve]

**Q.** Which Potency does the source give for `Cc1cc(C)nc(SCc2cc(=O)c(OC(=O)c3ccc(Br)o3)co2)n1` here?
**A.** inconclusive: 16.4 µM [cytotoxic, single point]

**Q.** Which Potency does the source give for `O=C(Cc1ccccc1)N/N=C/c1cccc([N+](=O)[O-])c1` here?
**A.** inconclusive: 29.1 µM [cytotoxic, single point]

**Q.** With `COc1ccccc1N1CCN(C(=O)CN(c2cc(C)cc(C)c2)S(C)(=O)=O)CC1` as the compound, how does the Potency read?
**A.** inconclusive: 23.1 µM [cytotoxic, single point]

**Q.** With `Cc1ccc(/C=C/C(=O)N2CCCN(C(=O)/C=C/c3ccc(C)cc3)CC2)cc1` as the compound, how does the Potency read?
**A.** inconclusive: 20.6 µM [cytotoxic, single point]

**Q.** Which Potency does the source give for `CCCN1CCC(=O)N([C@H](COc2ccccc2)CC(C)C)CC1` here?
**A.** inconclusive: 4.11 µM [cytotoxic, full curve]

**Q.** Which Potency does the source give for `COc1ccc2ccc(OC)c(/C=N/NC(=O)c3cc4ccccc4o3)c2c1` here?
**A.** inconclusive: 23.1 µM [cytotoxic, single point]

**Q.** For `Cc1csc(Sc2nc3c(c(=O)[nH]c(=O)n3C)n2CCCc2ccccc2)n1`, which Potency is on record?
**A.** active: 4.11 µM

**Q.** For `O=C(Nc1ccc(Cl)cc1)N[C@@H]1c2c(ccc3ccccc23)OC[C@@H]1CO`, which Potency is on record?
**A.** inconclusive: 25.9 µM [cytotoxic, single point]

**Q.** With `Cc1nc(N2CCN(Cc3ccccc3)CC2)nc2c1C(=O)CCC2` as the compound, how does the Potency read?
**A.** active: 18.4 µM

**Q.** For `COc1ccc(-n2cc(CNCCCn3ccnc3)c(-c3cccc(F)c3)n2)cc1`, which “activity change, negative = cytotoxicity” value is on record?
**A.** inactive: 9.77%

**Q.** With `CNC(=S)NNC(=O)c1ccc(N(C)C)cc1` as the compound, how does the Potency read?
**A.** active: 11.6 µM

**Q.** For `O=C(NN=Cc1c(O)ccc2ccccc12)c1ccc2c(c1)OCO2`, which Potency is on record?
**A.** inconclusive: 20.6 µM [cytotoxic, partial curve, poor fit]

**Q.** Which “activity change, negative = cytotoxicity” value does the source give for `O=C(Nc1ccc(Br)cn1)c1cnn2c1NC(=C1CC1)C=C2C(F)F` here?
**A.** inactive: 0%

**Q.** With `COc1ccc(OC)c(NC(=O)c2cccc(Cn3cc(Br)c([N+](=O)[O-])n3)c2)c1` as the compound, how does the Potency read?
**A.** active: 4.61 µM

**Q.** With `C[C@H](CO)N1C[C@H](C)[C@@H](CN(C)C(=O)Cc2ccccc2)OCCCC[C@H](C)Oc2ccc(NC(=O)NC3CCCCC3)cc2C1=O` as the compound, how does the Potency read?
**A.** inconclusive: 25.9 µM [rising, single point]

**Q.** Which “activity change, negative = cytotoxicity” value does the source give for `CCn1c(=O)c2c(n3c(=S)[nH]nc13)-c1ccccc1CC21CCCCC1` here?
**A.** inactive: 2.61%

**Q.** For `Cc1c(C(=O)OCC(C)C)[nH]c2c1C(=O)CC(c1ccco1)C2` (centres undefined), which Potency is on record?
**A.** inconclusive: 0.0052 µM [cytotoxic, full curve, poor fit]

**Q.** With `CCOc1ccc(CCNC(=O)Nc2cccc(OC)c2)cc1OCC` as the compound, how does the “activity change, negative = cytotoxicity” value read?
**A.** inactive: -16.8%

**Q.** For `CCCSc1ncc(Cl)c(C(=O)Nc2sc3c(c2C(=O)NCC)CCCC3)n1`, which “activity change, negative = cytotoxicity” value is on record?
**A.** inactive: 9.88%

**Q.** For `CC(C)c1nnc(NC(=O)c2nc(SCc3ccc(F)cc3)ncc2Cl)s1`, which “activity change, negative = cytotoxicity” value is on record?
**A.** inactive: 16.4%

**Q.** For `Fc1cccc(Cc2c(-c3cccc(Cl)c3)nc3c(Cl)cc(C(F)(F)F)cn23)c1`, which “activity change, negative = cytotoxicity” value is on record?
**A.** inactive: 6.77%

**Q.** Which Potency does the source give for `COC(=O)c1ccc(COc2cccc3c2CCN(Cc2ccccc2)C3=O)o1` here?
**A.** inconclusive: 16.4 µM [cytotoxic, partial curve, poor fit]

**Q.** For `COc1cc(NCCCNC(C)C)c2nccc(C)c2c1`, which “activity change, negative = cytotoxicity” value is on record?
**A.** inactive: -1.22%

**Q.** For `CC(/C=N/n1c(-c2ccccc2)n[nH]c1=S)=C\c1ccco1`, which “activity change, negative = cytotoxicity” value is on record?
**A.** inactive: 5.26%

**Q.** With `CC1CCN(CCOc2ccc(Cl)c(Cl)c2)CC1` as the compound, how does the Potency read?
**A.** inconclusive: 4.11 µM [rising, full curve, poor fit]

**Q.** Which Potency does the source give for `CCOC(=O)N1CCN(Cc2nc3cc(NC(=O)c4cccs4)ccc3n2C)CC1` here?
**A.** inconclusive: 20.6 µM [cytotoxic, single point]

**Q.** With `O=C(NCCCl)Nc1ccc(Cl)c([N+](=O)[O-])c1` as the compound, how does the Potency read?
**A.** inconclusive: 23.1 µM [cytotoxic, single point]

**Q.** With `CCCCCC(=O)Nc1ccc(C2C(=O)c3ccccc3C2=O)cc1` as the compound, how does the “activity change, negative = cytotoxicity” value read?
**A.** inactive: 1.86%

**Q.** Which Potency does the source give for `OCC[C@@H]1C[C@H](O)[C@@H](O)[C@]2(OCCc3cc(Cl)ccc32)O1` here?
**A.** inconclusive: 3.26 µM [cytotoxic, partial curve, poor fit]

**Q.** Which Potency does the source give for `C=CCNc1nc(NCc2cccc(OC)c2)c2sc(-c3ccccc3)cc2n1` here?
**A.** inconclusive: 23.1 µM [cytotoxic, single point]

**Q.** Which Potency does the source give for `O=C(NCCc1ccccc1)C1CCN(S(=O)(=O)c2cccs2)CC1` here?
**A.** inconclusive: 23.1 µM [cytotoxic, partial curve]

**Q.** Which Potency does the source give for `Cc1ccc(N(Cc2cc3ccc(C)cc3[nH]c2=O)S(=O)(=O)c2ccccc2)c(C)c1` here?
**A.** inconclusive: 2.31 µM [cytotoxic, full curve]

**Q.** Which Potency does the source give for `COc1cc(Cl)ccc1OC(=O)c1cn(-c2ccccc2OC)c(=O)c2ccccc12` here?
**A.** inconclusive: 20.6 µM [rising, single point]

**Q.** For `O=C(/C=C/c1cccs1)N1CCN(c2ccc(F)cc2)CC1`, which Potency is on record?
**A.** inconclusive: 16.4 µM [cytotoxic, partial curve]

**Q.** For `O=C(NN(c1ccccc1)c1ccccc1)c1ccc([N+](=O)[O-])o1`, which Potency is on record?
**A.** inconclusive: 29.1 µM [cytotoxic, single point]

**Q.** With `O=S(=O)(c1ccc(Br)cc1)c1nc(-c2ccco2)oc1NCCCn1ccnc1` as the compound, how does the “activity change, negative = cytotoxicity” value read?
**A.** inactive: -27.9%

**Q.** For `O=C(Nc1ccccc1)c1ccco1`, which Potency is on record?
**A.** inconclusive: 20.6 µM [rising, single point]

**Q.** Which Potency does the source give for `COc1ccc(NC(=O)CN(C)CC(=O)Nc2ccc(Cl)cc2[N+](=O)[O-])cc1` here?
**A.** inconclusive: 10.3 µM [cytotoxic, partial curve]

**Q.** For `COCOc1ccc(/C=C2/Oc3cc(OCOC)cc(OCOC)c3C2=O)c(OCOC)c1`, which “activity change, negative = cytotoxicity” value is on record?
**A.** inactive: -6.09%

**Q.** For `COc1ccccc1C(=O)NC(CCSC)C(=O)NCC(c1cccs1)N(C)C` (centres undefined), which Potency is on record?
**A.** inconclusive: 8.2 µM [cytotoxic, partial curve, poor fit]

**Q.** Which Potency does the source give for `COc1ccc(CC(=O)Nc2ccccc2-c2ccccc2)cc1OC` here?
**A.** active: 14.6 µM

**Q.** With `COc1ccc(C2CC(c3ccccc3)=NN2c2ccc(Cl)c(C(=O)O)c2)cc1` (centres undefined) as the compound, how does the Potency read?
**A.** inconclusive: 23.1 µM [rising, partial curve, poor fit]

**Q.** With `Nc1[nH]n2c(=O)cc(-c3ccccc3)nc2c1N=Nc1ccc(S(N)(=O)=O)cc1` as the compound, how does the “activity change, negative = cytotoxicity” value read?
**A.** inactive: 0%

**Q.** With `COc1ccc(OC)c(CNc2ccc([N+](=O)[O-])cc2C)c1` as the compound, how does the Potency read?
**A.** inconclusive: 20.6 µM [cytotoxic, partial curve]

**Q.** Which Potency does the source give for `COc1ccc(S(=O)(=O)N(C)CC(=O)Nc2ccc(C(F)(F)F)cc2)cc1Cl` here?
**A.** inconclusive: 22.4 µM [cytotoxic, single point]
